Values quoted from earlier work as cited in patent publication US10966957B2, “Method of treating cancer with combinations of histone deacetylase inhibitors (HDAC1) substances” (Research Cancer Institute of America, priority 2011, dated 2021).
At least one structure is not confirmed: it was looked up by name or label, or the drawing left a doubt.

System: advanced cancers
Settings: rodent model; cited from earlier work

In the case of `O=C(O)C(=O)CBr` [3-BrPA, 3-bromopyruvate], the Advanced cancers eradicated is listed as 19 of 19.
